# PubChem BioAssay AID602196 – INSERM, 2012
# Screen: 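Modifiers of cisplatin sensitivity in A549 cells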
# System: human A549 lung cancer cells
# Knock-down reagent: siRNA pair against human genes
# Timing: 48 h transfection before cisplatin; time from cisplatin to read-out not stated
# Conditions: cisplatin at a dose killing half of control-siRNA cells; exact dose and duration not given
# Detection: 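Shift in cisplatin death relative to control siRNA, from -50 (all cells die) to +50 (no cells die); siRNAs harmful on their own scored 0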
# Scale: two-siRNA summed score (-2 to +2): higher = both siRNAs protect from cisplatin killing; -2 means both sensitise; mean protection from cisplatin (shift in death) and protection from cisplatin (shift in death), siRNA C and protection from cisplatin (shift in death), siRNA D: higher = protection from cisplatin killing
# Hit rule: 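Each siRNA scores 0 if harmful alone by LDH or WST-1, otherwise +1 if it reduces and -1 if it increases cisplatin killing; a gene is active when both siRNAs agree (sum +2 or -2)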
# Calls: active = both siRNAs shift cisplatin killing the same way; inactive = no consistent shift, or siRNA harmful alone
# In all, the deposit lists about 23,000 reagents; below is an unselected part. Of all reagents, 455 (2%) were called active. 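Active includes both protection and sensitisation; some change values fall well beyond the stated -50 to +50 range.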 Not stated in the record: the amount of reagent.
target gene,PubChem SID,two-siRNA summed score (-2 to +2),mean protection from cisplatin (shift in death) (%),"protection from cisplatin (shift in death), siRNA C (%)","protection from cisplatin (shift in death), siRNA D (%)",call
MRPS21 (mitochondrial ribosomal protein S21),SID131504107,0,-6.5,-4.6,-8.4,inactive
LOC401050,SID131516170,0,10.4,14.1,6.7,inactive
CNTN5 (contactin 5),SID131509861,0,2.6,0.8,4.4,inactive
SDC1 (syndecan 1),SID131517546,0,13.8,25,2.6,inactive
IER2 (immediate early response 2),SID131505362,0,-3.3,-3.4,-3.2,inactive
GDF6 (growth differentiation factor 6),SID131501929,-1,-6.6,-11.5,-1.6,inactive
TYK2 (tyrosine kinase 2),SID131511777,0,4.7,8,1.5,inactive
LOC388907,SID131513045,0,6.1,-5.9,18.1,inactive
MAP3K9 (mitogen-activated protein kinase kinase kinase 9),SID131521957,1,15.6,23.6,7.6,inactive
TP53INP1 (tumor protein p53 inducible nuclear protein 1),SID131508685,0,1.3,5.4,-2.7,inactive
KYNU (kynureninase),SID131508228,0,0.8,4.3,-2.7,inactive
VPS37A (VPS37A subunit of ESCRT-I),SID131519939,1,8.1,13.6,2.5,inactive
LOC256283,SID131515484,0,9.2,11.7,6.8,inactive
SAMD12 (sterile alpha motif domain containing 12),SID131509929,0,2.7,-5.5,10.8,inactive
AKR1C3 (aldo-keto reductase family 1 member C3),SID131500962,-1,-13.8,-20.2,-7.4,inactive
FMO1 (flavin containing dimethylaniline monoxygenase 1),SID131505534,0,-3,-6.6,0.6,inactive
SLCO1B3,SID131512548,0,5.6,-6.6,17.8,inactive
PRKAB2 (protein kinase AMP-activated non-catalytic subunit beta 2),SID131512534,0,5.6,4.7,6.5,inactive
LOC339162,SID131521827,1,15,5.9,24.1,inactive
MPLKIP (M-phase specific PLK1 interacting protein),SID131520225,1,9.1,11.6,6.7,inactive
ALK (ALK receptor tyrosine kinase),SID131523047,2,17.9,26.7,9,active

Targets listed so far whose target name begins with L or l (4):
target gene,PubChem SID,two-siRNA summed score (-2 to +2),mean protection from cisplatin (shift in death) (%),"protection from cisplatin (shift in death), siRNA C (%)","protection from cisplatin (shift in death), siRNA D (%)",call
LOC401050,SID131516170,0,10.4,14.1,6.7,inactive
LOC388907,SID131513045,0,6.1,-5.9,18.1,inactive
LOC256283,SID131515484,0,9.2,11.7,6.8,inactive
LOC339162,SID131521827,1,15,5.9,24.1,inactive

Continued.
target gene,PubChem SID,two-siRNA summed score (-2 to +2),mean protection from cisplatin (shift in death) (%),"protection from cisplatin (shift in death), siRNA C (%)","protection from cisplatin (shift in death), siRNA D (%)",call
GADD45GIP1 (GADD45G interacting protein 1),SID131519661,1,6.9,19.4,-5.7,inactive
DIRAS1 (DIRAS family GTPase 1),SID131510346,0,3.2,8.8,-2.5,inactive
MORN4 (MORN repeat containing 4),SID131514146,0,7.4,-1.1,16,inactive
DDA1 (DET1 and DDB1 associated 1),SID131511626,0,4.5,3.4,5.7,inactive
PID1 (phosphotyrosine interaction domain containing 1),SID131509239,0,2,-6.3,10.2,inactive
SLAMF6 (SLAM family member 6),SID131521100,1,12.2,4.2,20.2,inactive
GNAI2P2 (G protein subunit alpha i2 pseudogene 2),SID131520860,1,11.3,14.4,8.3,inactive
SLC15A1,SID131508416,0,1,-4.7,6.8,inactive
PPIAP58 (peptidylprolyl isomerase A pseudogene 58),SID131523137,2,21.2,17.5,24.8,active
LOC441991,SID131516961,0,12.1,13.2,10.9,inactive
CPNE5 (copine 5),SID131512098,0,5.1,14.9,-4.7,inactive
GEMIN2 (gem nuclear organelle associated protein 2),SID131501208,-1,-11.4,-27.7,4.9,inactive
TCN2 (transcobalamin 2),SID131516797,0,11.7,11.7,11.6,inactive
ACHE (acetylcholinesterase (Yt blood group)),SID131500705,-1,-17.4,2.7,-37.5,inactive
DUX3 (double homeobox 3),SID131513943,0,7.2,3.6,10.8,inactive
LOC440386 (retired record),SID131519473,1,5.8,-2.1,13.6,inactive
KRABD4 (KRAB domain containing 4),SID131501162,-1,-11.9,-13.8,-10,inactive
NHSL1 (NHS like 1),SID131520218,1,9.1,7,11.2,inactive
